Experimental data taken from article PMC5674072.
No constants are given. Whether binding was seen depends on the method and setting. Binding seen in cells or lysates may run through a third protein. Some entries that bind do so weakly or less than the wild type. Where a sequence is shown, tags or fusion partners need not be part of it.

The chains behind the UniProt entries cited, without tags or fusion partners.
UniProt Q9Z1N5: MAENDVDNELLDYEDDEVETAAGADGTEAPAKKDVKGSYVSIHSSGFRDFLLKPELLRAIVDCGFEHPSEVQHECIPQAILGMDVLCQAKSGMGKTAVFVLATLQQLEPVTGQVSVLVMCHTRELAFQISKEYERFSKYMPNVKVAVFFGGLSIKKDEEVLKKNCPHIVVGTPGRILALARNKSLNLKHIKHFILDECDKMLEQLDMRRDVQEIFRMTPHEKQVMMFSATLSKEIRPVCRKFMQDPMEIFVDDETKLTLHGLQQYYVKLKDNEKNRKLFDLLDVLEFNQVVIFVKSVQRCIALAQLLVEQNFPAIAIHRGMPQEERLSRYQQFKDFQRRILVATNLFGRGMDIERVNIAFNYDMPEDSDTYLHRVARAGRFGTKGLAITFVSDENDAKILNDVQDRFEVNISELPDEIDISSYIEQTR

T1: 3x Flag Matrin 3 wild-type (human) (human) (UniProt P43243)
T1 sequence: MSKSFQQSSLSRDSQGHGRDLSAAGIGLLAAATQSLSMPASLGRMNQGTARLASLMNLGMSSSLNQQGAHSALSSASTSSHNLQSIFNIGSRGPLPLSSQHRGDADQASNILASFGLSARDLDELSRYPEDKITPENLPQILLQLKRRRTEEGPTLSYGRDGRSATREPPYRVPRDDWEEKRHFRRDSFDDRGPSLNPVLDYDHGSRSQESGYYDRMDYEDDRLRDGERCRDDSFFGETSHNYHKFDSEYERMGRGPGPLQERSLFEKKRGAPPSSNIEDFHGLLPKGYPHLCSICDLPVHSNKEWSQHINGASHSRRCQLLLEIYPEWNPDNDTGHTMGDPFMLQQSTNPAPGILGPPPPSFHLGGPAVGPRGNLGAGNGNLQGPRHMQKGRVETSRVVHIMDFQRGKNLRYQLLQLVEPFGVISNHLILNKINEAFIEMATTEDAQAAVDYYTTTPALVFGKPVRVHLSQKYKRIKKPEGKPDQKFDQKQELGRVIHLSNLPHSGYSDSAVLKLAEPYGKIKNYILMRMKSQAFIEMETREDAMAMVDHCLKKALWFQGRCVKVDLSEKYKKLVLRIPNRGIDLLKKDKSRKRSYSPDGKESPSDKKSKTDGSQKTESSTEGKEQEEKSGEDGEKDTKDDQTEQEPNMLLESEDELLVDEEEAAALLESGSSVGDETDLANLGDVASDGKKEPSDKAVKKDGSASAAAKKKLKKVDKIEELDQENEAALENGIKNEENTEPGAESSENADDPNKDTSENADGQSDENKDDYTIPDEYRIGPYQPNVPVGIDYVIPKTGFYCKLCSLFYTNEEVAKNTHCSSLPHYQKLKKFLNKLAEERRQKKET


These binders were tested against T1, 3x Flag Matrin 3 wild-type (human) (human) (assay: co-IP; Flag M2 affinity gel on nuclear fractions (400 µg total protein) of NSC-34 cells stably expressing 3x Flag Matrin 3; western blot for Aly, Ddx39b, Sarnp).

binding	Binder
binds	Sarnp (Cip29) of NSC-34 cells (protein, UniProt Q9D1J3 1-210) MAAETVELHKLKLAELKQECLARGLETKGIKQDLINRLQAYLEDHAEEEANEEDVLGDETEEEEPKPIELPVKEEEPPEKAVDMASEKKVVKITSGIPQTERMQKRAERFNVPVSLESKKAARAARFGISSVPTKGLSSDTKPMVNLDKLKERAQRFGLNVSSISRKSEDDEKLKKRKERFGIVTSSAGTGTTEDTEAKKRKRAERFGIA

What follows are binders tested against Ddx39b (UAP56) of NSC-34 cells (mouse (endogenous in NSC-34)) (UniProt Q9Z1N5) (assay: co-IP; reverse IP: antibodies against Aly or Ddx39b on nuclear fractions of NSC-34 cells stably expressing 3x Flag Matrin 3 wild-type or mutant; western blot for Flag, quantified as Flag signal over bait signal).

binding	Binder
binds	3x Flag Matrin 3 wild-type (human) (protein, UniProt P43243 1-847) MSKSFQQSSLSRDSQGHGRDLSAAGIGLLAAATQSLSMPASLGRMNQGTARLASLMNLGMSSSLNQQGAHSALSSASTSSHNLQSIFNIGSRGPLPLSSQHRGDADQASNILASFGLSARDLDELSRYPEDKITPENLPQILLQLKRRRTEEGPTLSYGRDGRSATREPPYRVPRDDWEEKRHFRRDSFDDRGPSLNPVLDYDHGSRSQESGYYDRMDYEDDRLRDGERCRDDSFFGETSHNYHKFDSEYERMGRGPGPLQERSLFEKKRGAPPSSNIEDFHGLLPKGYPHLCSICDLPVHSNKEWSQHINGASHSRRCQLLLEIYPEWNPDNDTGHTMGDPFMLQQSTNPAPGILGPPPPSFHLGGPAVGPRGNLGAGNGNLQGPRHMQKGRVETSRVVHIMDFQRGKNLRYQLLQLVEPFGVISNHLILNKINEAFIEMATTEDAQAAVDYYTTTPALVFGKPVRVHLSQKYKRIKKPEGKPDQKFDQKQELGRVIHLSNLPHSGYSDSAVLKLAEPYGKIKNYILMRMKSQAFIEMETREDAMAMVDHCLKKALWFQGRCVKVDLSEKYKKLVLRIPNRGIDLLKKDKSRKRSYSPDGKESPSDKKSKTDGSQKTESSTEGKEQEEKSGEDGEKDTKDDQTEQEPNMLLESEDELLVDEEEAAALLESGSSVGDETDLANLGDVASDGKKEPSDKAVKKDGSASAAAKKKLKKVDKIEELDQENEAALENGIKNEENTEPGAESSENADDPNKDTSENADGQSDENKDDYTIPDEYRIGPYQPNVPVGIDYVIPKTGFYCKLCSLFYTNEEVAKNTHCSSLPHYQKLKKFLNKLAEERRQKKET
binds	3x Flag Matrin 3 F115C (human) (protein, UniProt P43243 1-847) MSKSFQQSSLSRDSQGHGRDLSAAGIGLLAAATQSLSMPASLGRMNQGTARLASLMNLGMSSSLNQQGAHSALSSASTSSHNLQSIFNIGSRGPLPLSSQHRGDADQASNILASCGLSARDLDELSRYPEDKITPENLPQILLQLKRRRTEEGPTLSYGRDGRSATREPPYRVPRDDWEEKRHFRRDSFDDRGPSLNPVLDYDHGSRSQESGYYDRMDYEDDRLRDGERCRDDSFFGETSHNYHKFDSEYERMGRGPGPLQERSLFEKKRGAPPSSNIEDFHGLLPKGYPHLCSICDLPVHSNKEWSQHINGASHSRRCQLLLEIYPEWNPDNDTGHTMGDPFMLQQSTNPAPGILGPPPPSFHLGGPAVGPRGNLGAGNGNLQGPRHMQKGRVETSRVVHIMDFQRGKNLRYQLLQLVEPFGVISNHLILNKINEAFIEMATTEDAQAAVDYYTTTPALVFGKPVRVHLSQKYKRIKKPEGKPDQKFDQKQELGRVIHLSNLPHSGYSDSAVLKLAEPYGKIKNYILMRMKSQAFIEMETREDAMAMVDHCLKKALWFQGRCVKVDLSEKYKKLVLRIPNRGIDLLKKDKSRKRSYSPDGKESPSDKKSKTDGSQKTESSTEGKEQEEKSGEDGEKDTKDDQTEQEPNMLLESEDELLVDEEEAAALLESGSSVGDETDLANLGDVASDGKKEPSDKAVKKDGSASAAAKKKLKKVDKIEELDQENEAALENGIKNEENTEPGAESSENADDPNKDTSENADGQSDENKDDYTIPDEYRIGPYQPNVPVGIDYVIPKTGFYCKLCSLFYTNEEVAKNTHCSSLPHYQKLKKFLNKLAEERRQKKET
binds	3x Flag Matrin 3 P154S (human) (protein, UniProt P43243 1-847) MSKSFQQSSLSRDSQGHGRDLSAAGIGLLAAATQSLSMPASLGRMNQGTARLASLMNLGMSSSLNQQGAHSALSSASTSSHNLQSIFNIGSRGPLPLSSQHRGDADQASNILASFGLSARDLDELSRYPEDKITPENLPQILLQLKRRRTEEGSTLSYGRDGRSATREPPYRVPRDDWEEKRHFRRDSFDDRGPSLNPVLDYDHGSRSQESGYYDRMDYEDDRLRDGERCRDDSFFGETSHNYHKFDSEYERMGRGPGPLQERSLFEKKRGAPPSSNIEDFHGLLPKGYPHLCSICDLPVHSNKEWSQHINGASHSRRCQLLLEIYPEWNPDNDTGHTMGDPFMLQQSTNPAPGILGPPPPSFHLGGPAVGPRGNLGAGNGNLQGPRHMQKGRVETSRVVHIMDFQRGKNLRYQLLQLVEPFGVISNHLILNKINEAFIEMATTEDAQAAVDYYTTTPALVFGKPVRVHLSQKYKRIKKPEGKPDQKFDQKQELGRVIHLSNLPHSGYSDSAVLKLAEPYGKIKNYILMRMKSQAFIEMETREDAMAMVDHCLKKALWFQGRCVKVDLSEKYKKLVLRIPNRGIDLLKKDKSRKRSYSPDGKESPSDKKSKTDGSQKTESSTEGKEQEEKSGEDGEKDTKDDQTEQEPNMLLESEDELLVDEEEAAALLESGSSVGDETDLANLGDVASDGKKEPSDKAVKKDGSASAAAKKKLKKVDKIEELDQENEAALENGIKNEENTEPGAESSENADDPNKDTSENADGQSDENKDDYTIPDEYRIGPYQPNVPVGIDYVIPKTGFYCKLCSLFYTNEEVAKNTHCSSLPHYQKLKKFLNKLAEERRQKKET
binds	3x Flag Matrin 3 S85C (human) (protein, UniProt P43243 1-847) MSKSFQQSSLSRDSQGHGRDLSAAGIGLLAAATQSLSMPASLGRMNQGTARLASLMNLGMSSSLNQQGAHSALSSASTSSHNLQCIFNIGSRGPLPLSSQHRGDADQASNILASFGLSARDLDELSRYPEDKITPENLPQILLQLKRRRTEEGPTLSYGRDGRSATREPPYRVPRDDWEEKRHFRRDSFDDRGPSLNPVLDYDHGSRSQESGYYDRMDYEDDRLRDGERCRDDSFFGETSHNYHKFDSEYERMGRGPGPLQERSLFEKKRGAPPSSNIEDFHGLLPKGYPHLCSICDLPVHSNKEWSQHINGASHSRRCQLLLEIYPEWNPDNDTGHTMGDPFMLQQSTNPAPGILGPPPPSFHLGGPAVGPRGNLGAGNGNLQGPRHMQKGRVETSRVVHIMDFQRGKNLRYQLLQLVEPFGVISNHLILNKINEAFIEMATTEDAQAAVDYYTTTPALVFGKPVRVHLSQKYKRIKKPEGKPDQKFDQKQELGRVIHLSNLPHSGYSDSAVLKLAEPYGKIKNYILMRMKSQAFIEMETREDAMAMVDHCLKKALWFQGRCVKVDLSEKYKKLVLRIPNRGIDLLKKDKSRKRSYSPDGKESPSDKKSKTDGSQKTESSTEGKEQEEKSGEDGEKDTKDDQTEQEPNMLLESEDELLVDEEEAAALLESGSSVGDETDLANLGDVASDGKKEPSDKAVKKDGSASAAAKKKLKKVDKIEELDQENEAALENGIKNEENTEPGAESSENADDPNKDTSENADGQSDENKDDYTIPDEYRIGPYQPNVPVGIDYVIPKTGFYCKLCSLFYTNEEVAKNTHCSSLPHYQKLKKFLNKLAEERRQKKET
binds	3x Flag Matrin 3 T622A (human) (protein, UniProt P43243 1-847) MSKSFQQSSLSRDSQGHGRDLSAAGIGLLAAATQSLSMPASLGRMNQGTARLASLMNLGMSSSLNQQGAHSALSSASTSSHNLQSIFNIGSRGPLPLSSQHRGDADQASNILASFGLSARDLDELSRYPEDKITPENLPQILLQLKRRRTEEGPTLSYGRDGRSATREPPYRVPRDDWEEKRHFRRDSFDDRGPSLNPVLDYDHGSRSQESGYYDRMDYEDDRLRDGERCRDDSFFGETSHNYHKFDSEYERMGRGPGPLQERSLFEKKRGAPPSSNIEDFHGLLPKGYPHLCSICDLPVHSNKEWSQHINGASHSRRCQLLLEIYPEWNPDNDTGHTMGDPFMLQQSTNPAPGILGPPPPSFHLGGPAVGPRGNLGAGNGNLQGPRHMQKGRVETSRVVHIMDFQRGKNLRYQLLQLVEPFGVISNHLILNKINEAFIEMATTEDAQAAVDYYTTTPALVFGKPVRVHLSQKYKRIKKPEGKPDQKFDQKQELGRVIHLSNLPHSGYSDSAVLKLAEPYGKIKNYILMRMKSQAFIEMETREDAMAMVDHCLKKALWFQGRCVKVDLSEKYKKLVLRIPNRGIDLLKKDKSRKRSYSPDGKESPSDKKSKTDGSQKTESSAEGKEQEEKSGEDGEKDTKDDQTEQEPNMLLESEDELLVDEEEAAALLESGSSVGDETDLANLGDVASDGKKEPSDKAVKKDGSASAAAKKKLKKVDKIEELDQENEAALENGIKNEENTEPGAESSENADDPNKDTSENADGQSDENKDDYTIPDEYRIGPYQPNVPVGIDYVIPKTGFYCKLCSLFYTNEEVAKNTHCSSLPHYQKLKKFLNKLAEERRQKKET
